The list shows a part of the results.
Compound: CC1Cc2ccccc2N1C(=O)C1CCCN(C1)C(=O)CCl (mixture of isomers) [TRIM25 ligand 11 (diastereomer mixture)]
Experiment: probe-labelled cysteine peptide fold change vs DMSO (competition) (log2 fold change); higher = less target engagement (more negative = stronger competition)
Conditions: THP-1, incubation time: 4 h
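Also: competitive chemoproteomic profiling in live THP-1 cells with an iodoacetamide desthiobiotin (IA-DTB) probe, comparing probe-labelled peptide intensities in compound-treated cells against DMSO-treated controls.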

Sequences of proteins named here, by UniProt entry; tags and fusion partners are left off. A change or cut given only in a name is not applied to a line headed by its entry.
UniProt P07996: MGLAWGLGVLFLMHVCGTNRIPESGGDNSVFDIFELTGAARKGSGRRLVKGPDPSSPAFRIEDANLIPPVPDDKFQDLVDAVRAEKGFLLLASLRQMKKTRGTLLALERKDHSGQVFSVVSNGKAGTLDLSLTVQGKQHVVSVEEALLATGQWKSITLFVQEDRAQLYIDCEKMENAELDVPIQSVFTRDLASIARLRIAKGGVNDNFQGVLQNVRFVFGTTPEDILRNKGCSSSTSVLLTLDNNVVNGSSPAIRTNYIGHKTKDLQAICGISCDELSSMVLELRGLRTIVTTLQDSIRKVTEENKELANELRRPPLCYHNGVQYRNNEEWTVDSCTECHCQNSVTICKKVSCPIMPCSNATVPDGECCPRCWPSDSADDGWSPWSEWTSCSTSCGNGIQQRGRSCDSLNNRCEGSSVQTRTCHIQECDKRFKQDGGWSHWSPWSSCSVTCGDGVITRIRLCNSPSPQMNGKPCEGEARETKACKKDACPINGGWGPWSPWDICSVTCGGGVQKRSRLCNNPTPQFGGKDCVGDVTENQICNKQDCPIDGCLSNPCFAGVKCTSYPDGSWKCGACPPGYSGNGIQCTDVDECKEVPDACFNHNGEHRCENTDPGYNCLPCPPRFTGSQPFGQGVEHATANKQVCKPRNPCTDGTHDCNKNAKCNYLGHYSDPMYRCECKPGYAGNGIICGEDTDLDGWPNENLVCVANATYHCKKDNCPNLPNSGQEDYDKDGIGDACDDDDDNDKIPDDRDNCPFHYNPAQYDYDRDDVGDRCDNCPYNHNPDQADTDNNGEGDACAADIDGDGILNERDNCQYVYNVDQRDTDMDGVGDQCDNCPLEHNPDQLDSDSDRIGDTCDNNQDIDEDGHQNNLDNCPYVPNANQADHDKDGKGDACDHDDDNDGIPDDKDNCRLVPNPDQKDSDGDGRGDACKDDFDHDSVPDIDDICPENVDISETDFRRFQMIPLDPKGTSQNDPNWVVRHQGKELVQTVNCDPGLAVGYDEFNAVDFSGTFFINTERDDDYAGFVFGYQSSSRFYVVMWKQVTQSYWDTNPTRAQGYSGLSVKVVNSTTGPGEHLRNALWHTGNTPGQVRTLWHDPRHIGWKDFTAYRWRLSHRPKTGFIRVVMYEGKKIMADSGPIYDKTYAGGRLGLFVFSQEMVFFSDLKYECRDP
UniProt Q5JTD0: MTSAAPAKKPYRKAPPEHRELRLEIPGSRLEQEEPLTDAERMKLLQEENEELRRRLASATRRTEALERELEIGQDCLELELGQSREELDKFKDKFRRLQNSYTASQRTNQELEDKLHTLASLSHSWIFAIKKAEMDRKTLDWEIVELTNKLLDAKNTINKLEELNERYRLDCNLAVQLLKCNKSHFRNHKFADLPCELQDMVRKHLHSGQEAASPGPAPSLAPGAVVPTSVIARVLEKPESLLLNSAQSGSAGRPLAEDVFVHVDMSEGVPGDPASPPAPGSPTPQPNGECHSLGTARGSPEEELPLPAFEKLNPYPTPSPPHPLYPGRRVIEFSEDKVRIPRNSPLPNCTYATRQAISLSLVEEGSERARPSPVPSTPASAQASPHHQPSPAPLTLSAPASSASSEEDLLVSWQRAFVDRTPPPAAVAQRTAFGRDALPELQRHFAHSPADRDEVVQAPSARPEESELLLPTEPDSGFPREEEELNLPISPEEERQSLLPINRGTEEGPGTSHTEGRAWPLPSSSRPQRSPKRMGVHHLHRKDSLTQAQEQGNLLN
UniProt Q5JUR7: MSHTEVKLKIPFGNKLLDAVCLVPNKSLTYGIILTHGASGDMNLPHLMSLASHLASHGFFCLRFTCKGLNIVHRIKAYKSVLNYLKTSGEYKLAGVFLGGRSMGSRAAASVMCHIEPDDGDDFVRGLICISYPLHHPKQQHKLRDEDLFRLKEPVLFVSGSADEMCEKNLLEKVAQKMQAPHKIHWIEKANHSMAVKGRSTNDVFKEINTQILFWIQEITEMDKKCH
UniProt P04216: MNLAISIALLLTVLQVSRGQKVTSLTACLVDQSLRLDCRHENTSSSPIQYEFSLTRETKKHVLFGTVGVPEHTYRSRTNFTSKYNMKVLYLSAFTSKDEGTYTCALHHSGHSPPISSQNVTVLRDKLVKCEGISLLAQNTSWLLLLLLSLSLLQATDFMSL
UniProt Q9UGI8: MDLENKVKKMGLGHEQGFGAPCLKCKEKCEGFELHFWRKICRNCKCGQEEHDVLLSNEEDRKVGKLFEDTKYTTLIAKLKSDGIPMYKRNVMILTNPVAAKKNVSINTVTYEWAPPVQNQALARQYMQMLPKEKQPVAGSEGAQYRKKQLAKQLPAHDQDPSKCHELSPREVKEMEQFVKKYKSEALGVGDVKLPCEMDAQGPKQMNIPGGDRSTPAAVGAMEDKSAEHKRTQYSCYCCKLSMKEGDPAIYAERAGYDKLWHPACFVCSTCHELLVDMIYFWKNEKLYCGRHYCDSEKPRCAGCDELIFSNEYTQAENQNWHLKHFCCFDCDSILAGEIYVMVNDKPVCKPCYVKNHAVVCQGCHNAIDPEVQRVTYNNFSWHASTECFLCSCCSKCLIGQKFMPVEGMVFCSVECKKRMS
UniProt P42680: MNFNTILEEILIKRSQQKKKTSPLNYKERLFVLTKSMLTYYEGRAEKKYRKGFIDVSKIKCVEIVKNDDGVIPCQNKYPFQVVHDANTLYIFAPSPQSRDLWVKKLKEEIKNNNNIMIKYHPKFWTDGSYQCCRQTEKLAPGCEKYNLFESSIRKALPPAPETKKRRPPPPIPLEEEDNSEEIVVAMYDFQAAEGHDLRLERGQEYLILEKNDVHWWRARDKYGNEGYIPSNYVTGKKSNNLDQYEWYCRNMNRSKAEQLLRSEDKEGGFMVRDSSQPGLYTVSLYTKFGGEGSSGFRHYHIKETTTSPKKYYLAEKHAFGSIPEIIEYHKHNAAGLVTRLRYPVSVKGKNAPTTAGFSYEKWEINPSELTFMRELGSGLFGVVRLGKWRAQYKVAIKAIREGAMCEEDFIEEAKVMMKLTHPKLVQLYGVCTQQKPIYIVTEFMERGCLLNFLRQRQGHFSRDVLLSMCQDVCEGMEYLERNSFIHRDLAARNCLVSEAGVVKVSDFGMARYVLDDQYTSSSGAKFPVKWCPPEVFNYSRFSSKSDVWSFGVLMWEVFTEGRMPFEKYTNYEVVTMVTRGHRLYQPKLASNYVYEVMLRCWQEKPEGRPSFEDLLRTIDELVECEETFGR
UniProt Q9UGU0: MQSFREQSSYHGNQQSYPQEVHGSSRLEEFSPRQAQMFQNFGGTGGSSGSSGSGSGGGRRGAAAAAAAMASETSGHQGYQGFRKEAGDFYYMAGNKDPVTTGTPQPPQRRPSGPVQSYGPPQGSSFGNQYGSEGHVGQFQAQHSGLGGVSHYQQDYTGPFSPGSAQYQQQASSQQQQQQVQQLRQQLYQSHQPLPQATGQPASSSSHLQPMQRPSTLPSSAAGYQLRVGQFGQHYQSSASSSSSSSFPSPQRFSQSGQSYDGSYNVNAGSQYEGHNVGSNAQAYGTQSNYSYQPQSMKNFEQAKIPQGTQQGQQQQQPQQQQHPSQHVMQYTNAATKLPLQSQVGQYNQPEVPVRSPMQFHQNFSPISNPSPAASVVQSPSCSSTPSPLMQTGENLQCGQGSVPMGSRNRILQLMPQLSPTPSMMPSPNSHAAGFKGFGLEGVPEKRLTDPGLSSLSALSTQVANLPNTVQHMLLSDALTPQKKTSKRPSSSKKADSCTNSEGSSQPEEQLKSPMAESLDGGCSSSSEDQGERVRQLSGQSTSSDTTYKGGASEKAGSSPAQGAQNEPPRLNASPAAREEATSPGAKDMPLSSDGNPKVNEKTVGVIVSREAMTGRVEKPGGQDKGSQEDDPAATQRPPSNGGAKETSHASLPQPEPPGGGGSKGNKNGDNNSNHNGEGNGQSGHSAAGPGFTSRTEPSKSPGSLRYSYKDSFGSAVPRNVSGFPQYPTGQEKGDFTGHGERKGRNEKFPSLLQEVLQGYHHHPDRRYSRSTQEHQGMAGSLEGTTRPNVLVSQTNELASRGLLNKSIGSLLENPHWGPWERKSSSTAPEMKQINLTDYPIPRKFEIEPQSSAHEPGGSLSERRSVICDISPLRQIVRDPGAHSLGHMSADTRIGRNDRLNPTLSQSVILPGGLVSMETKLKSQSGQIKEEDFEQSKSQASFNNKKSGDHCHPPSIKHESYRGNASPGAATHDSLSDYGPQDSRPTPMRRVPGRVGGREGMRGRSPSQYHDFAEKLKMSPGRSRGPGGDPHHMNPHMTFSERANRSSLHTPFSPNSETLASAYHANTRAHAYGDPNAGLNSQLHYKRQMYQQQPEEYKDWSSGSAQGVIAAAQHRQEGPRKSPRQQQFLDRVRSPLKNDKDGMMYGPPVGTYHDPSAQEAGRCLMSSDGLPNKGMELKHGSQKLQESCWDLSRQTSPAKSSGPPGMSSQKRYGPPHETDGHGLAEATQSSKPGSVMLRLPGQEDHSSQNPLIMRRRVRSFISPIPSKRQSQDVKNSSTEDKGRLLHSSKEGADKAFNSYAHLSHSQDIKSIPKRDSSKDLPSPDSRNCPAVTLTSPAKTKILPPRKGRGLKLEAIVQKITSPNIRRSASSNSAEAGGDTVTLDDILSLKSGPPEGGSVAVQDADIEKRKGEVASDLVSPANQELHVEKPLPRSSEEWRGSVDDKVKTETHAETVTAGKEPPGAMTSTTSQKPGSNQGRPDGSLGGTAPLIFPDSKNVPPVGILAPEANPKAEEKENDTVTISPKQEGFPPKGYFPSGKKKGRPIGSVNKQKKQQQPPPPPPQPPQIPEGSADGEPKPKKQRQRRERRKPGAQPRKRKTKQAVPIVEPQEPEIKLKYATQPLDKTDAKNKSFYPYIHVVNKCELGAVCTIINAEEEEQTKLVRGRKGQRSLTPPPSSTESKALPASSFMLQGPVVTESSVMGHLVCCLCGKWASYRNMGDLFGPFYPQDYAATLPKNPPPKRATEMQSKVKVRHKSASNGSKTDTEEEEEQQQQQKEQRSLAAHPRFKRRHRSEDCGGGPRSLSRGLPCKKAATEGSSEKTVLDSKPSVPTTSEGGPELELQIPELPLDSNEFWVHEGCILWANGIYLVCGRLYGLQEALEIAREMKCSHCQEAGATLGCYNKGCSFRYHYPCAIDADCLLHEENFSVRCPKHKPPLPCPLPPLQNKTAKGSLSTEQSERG
UniProt Q04727: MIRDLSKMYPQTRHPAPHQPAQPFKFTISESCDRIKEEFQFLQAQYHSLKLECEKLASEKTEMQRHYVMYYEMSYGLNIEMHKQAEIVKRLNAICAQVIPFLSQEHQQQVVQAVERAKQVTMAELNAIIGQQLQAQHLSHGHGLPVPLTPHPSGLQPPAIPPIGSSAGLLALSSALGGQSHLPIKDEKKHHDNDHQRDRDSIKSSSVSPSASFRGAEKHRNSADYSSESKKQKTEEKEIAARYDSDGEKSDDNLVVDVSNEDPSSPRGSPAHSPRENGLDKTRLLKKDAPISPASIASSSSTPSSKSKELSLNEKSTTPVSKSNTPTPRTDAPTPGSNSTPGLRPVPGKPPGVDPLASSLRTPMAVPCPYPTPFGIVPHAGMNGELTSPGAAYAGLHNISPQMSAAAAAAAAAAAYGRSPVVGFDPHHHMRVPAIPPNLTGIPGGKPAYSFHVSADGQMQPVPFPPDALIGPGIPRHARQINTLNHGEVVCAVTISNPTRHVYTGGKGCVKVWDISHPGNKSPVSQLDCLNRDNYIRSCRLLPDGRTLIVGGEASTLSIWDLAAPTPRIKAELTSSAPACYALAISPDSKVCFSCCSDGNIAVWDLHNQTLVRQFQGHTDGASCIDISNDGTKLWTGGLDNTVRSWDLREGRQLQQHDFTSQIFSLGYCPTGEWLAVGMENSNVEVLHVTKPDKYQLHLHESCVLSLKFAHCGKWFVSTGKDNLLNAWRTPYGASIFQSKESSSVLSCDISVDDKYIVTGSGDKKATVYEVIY
UniProt Q9Y5J7: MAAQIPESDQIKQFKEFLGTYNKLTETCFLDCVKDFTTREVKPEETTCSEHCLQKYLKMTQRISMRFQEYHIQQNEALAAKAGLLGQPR
UniProt Q9BV44: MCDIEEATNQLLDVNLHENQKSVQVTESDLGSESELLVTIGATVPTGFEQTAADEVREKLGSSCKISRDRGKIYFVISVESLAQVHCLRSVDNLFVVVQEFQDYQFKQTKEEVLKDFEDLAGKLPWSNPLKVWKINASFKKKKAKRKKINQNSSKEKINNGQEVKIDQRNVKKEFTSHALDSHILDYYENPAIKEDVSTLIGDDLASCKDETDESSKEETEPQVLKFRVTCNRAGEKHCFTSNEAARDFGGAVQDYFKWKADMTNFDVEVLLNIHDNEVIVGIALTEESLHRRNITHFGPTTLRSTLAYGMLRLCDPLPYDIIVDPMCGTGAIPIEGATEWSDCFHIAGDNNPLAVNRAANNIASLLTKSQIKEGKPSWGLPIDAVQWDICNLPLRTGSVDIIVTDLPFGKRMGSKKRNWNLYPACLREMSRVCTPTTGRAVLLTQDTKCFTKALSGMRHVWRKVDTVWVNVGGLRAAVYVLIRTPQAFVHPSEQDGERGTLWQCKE

| Target | probe-labelled cysteine peptide fold change (10 µM) | probe-labelled cysteine peptide fold change (50 µM) |
| --- | --- | --- |
| TK1_P04183_66_YSSSFCTHDR (UniProt P04183) | -0.0302 | 0.141 |
| THEMIS2_Q5TEJ8_395_LEVLGPGQAHGAQGSDVDVLVCQR (UniProt Q5TEJ8) | 0.11 | -0.309 |
| THOC2_Q8NI27_804_VPSIDVLCNEFHTPHDAAFFLSR (UniProt Q8NI27) | -0.0406 | 0.364 |
| TIGAR_Q9NQ88_114_EECPVFTPPGGETLDQVK (UniProt Q9NQ88) | 0.0772 | -0.0331 |
| THBS1_P07996_599_EVPDACFNHNGEHR (UniProt P07996) | 0.515 | 0.181 |
| TEPSIN_Q96N21_302_ALCAIASLGSSDLLPQEHILLR (UniProt Q96N21) | -0.000361 | -0.113 |
| TGFB1I1_O43294_393_ECFAPFSGGSFFEHEGRPLCENHFHAR (UniProt O43294) | -0.0101 | 0.114 |
| TJAP1_Q5JTD0_350_NSPLPNCTYATR (UniProt Q5JTD0) | -0.102 | -0.216 |
| TEP1_Q99973_692_TVLVYLTDANADRLCPK (UniProt Q99973) | -0.00077 | -0.297 |
| THOP1_P52888_175_KLSLLCIDFNK (UniProt P52888) | -0.13 | -0.106 |
| TELO2_Q9Y4R8_30_EAIHALSSSEDGGHIFCTLESLKR (UniProt Q9Y4R8) | 0.0505 | -0.231 |
| THAP10_Q9P2Z0_171_QAAASQITCENELVQTQPHADNPSNTVTSVPTHCEEGPVHK (UniProt Q9P2Z0) | -0.116 | -0.261 |
| TEX30_Q5JUR7_166_LKEPVLFVSGSADEMCEK (UniProt Q5JUR7) | -0.0477 | -0.18 |
| THY1_P04216_28_VTSLTACLVDQSLR (UniProt P04216) | 0.135 | 0.106 |
| TDP2_O95551_273_CGGLPNNIVDVWEFLGK (UniProt O95551) | 0.029 | 0.0122 |
| TFCP2_Q12800_72_ILPFQYVLCAATSPAVK (UniProt Q12800) | 0.138 | 0.193 |
| THOC6_Q86W42_324_VLTAAGNSCR (UniProt Q86W42) | -0.0484 | 0.0776 |
| TES_Q9UGI8_364_NHAVVCQGCHNAIDPEVQR (UniProt Q9UGI8) | 0.115 | 0.0556 |
| TFIP11_Q9UBB9_383_VLEMVEECER (UniProt Q9UBB9) | 0.0652 | 0.124 |

| Target | probe-labelled cysteine peptide fold change (10 µM) | probe-labelled cysteine peptide fold change (50 µM) |
| --- | --- | --- |
| THBS4_P35443_925_LGVFCFSQENIIWSNLK (UniProt P35443) | 0.547 | 0.212 |
| TEC_P42680_625_TIDELVECEETFGR (UniProt P42680) | -0.00269 | -0.127 |
| TCF20_Q9UGU0_1795_SEDCGGGPR (UniProt Q9UGU0) | -0.0601 | -0.00254 |
| THADA_Q6YHU6_926_VHCITGALQK (UniProt Q6YHU6) | -0.0248 | -0.0781 |
| TLE4_Q04727_32_FTISESCDR (UniProt Q04727) | 0.114 | 0.195 |
| TKFC_Q3LXA3_24_KLVNSVAGCADDALAGLVACNPNLQLLQGHR (UniProt Q3LXA3) | -0.238 | -0.093 |
| TECPR2_O15040_282_LESPNSGSCSLPER (UniProt O15040) | -0.0364 | -0.0561 |
| THBS1_P07996_718_DNCPNLPNSGQEDYDK (UniProt P07996) | 0.529 | 0.325 |
| TCF20_Q9UGU0_1163_CLMSSDGLPNK (UniProt Q9UGU0) | -0.0779 | -0.48 |
| TFB2M_Q9H5Q4_149_VIHCDFFK (UniProt Q9H5Q4) | -0.019 | 0.0488 |
| TKFC_Q3LXA3_13+24_KLVNSVAGCADDALAGLVACNPNLQLLQGHR (UniProt Q3LXA3) | -0.15 | -0.227 |
| THBS1_P07996_930_DSDGDGRGDACK (UniProt P07996) | 0.528 | 0.255 |
| TIMM9_Q9Y5J7_52_EVKPEETTCSEHCLQK (UniProt Q9Y5J7) | 0.0866 | -0.0147 |
| THUMPD3_Q9BV44_2_CDIEEATNQLLDVNLHENQK (UniProt Q9BV44) | -0.0426 | -0.137 |
| THBD_P07204_265_CQCPAGAALQADGR (UniProt P07204) | -0.113 | 0.0933 |
| THOC1_Q96FV9_49_KCTLDQAFR (UniProt Q96FV9) | -0.153 | -0.229 |
| THYN1_Q9P016_89_QTTCWDGVR (UniProt Q9P016) | -0.0572 | -0.0718 |
| TEP1_Q99973_2105_TPVLIHSFPACHR (UniProt Q99973) | -0.153 | 0.0331 |
| TIMM50_Q3ZCQ8_249_VVVVDCK (UniProt Q3ZCQ8) | 0.547 | 0.0512 |

Source: the supplement of paper PMC12067093, “Discovery and optimisation of a covalent ligand for TRIM25 and its application to targeted protein ubiquitination” (Chemical Science, 2025)
